Data reported in PubChem BioAssay AID2685 (National Center for Advancing Translational Sciences (NCATS), 2010).
The other results are listed elsewhere or left out. Shown are side measurements of this screen, not its main read-out; they come without a call. The list favours compounds with an active or inconclusive main result. Potencies come from curve fits of mixed quality, noted in brackets.

Experiment: qHTS Assay for Lipid Storage Modulators in Drosophila S3 Cells;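 on cell number change: cells counted by Cell Tracker Red CMTPX staining in the red channel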
Conditions: BODIPY lipid droplet fluorescence, 18-24 h; for cell number change: measured here: cell count max response, cells fed with added oleic acid
Description: NIH Molecular Libraries Probe Production Centers Network [MLPCN] NIH Chemical Genomics Center [NCGC] MLPCN Grant: 1 R03 MH085686-01 Assay Submitter (PI): Beller, Mathias; Max-Planck-Institut fur Biophysikalische Chemie NCGC Assay Overview: Storing lipids as a reservoir for energy or the anabolism of elementary metabolites is a common feature of probably all cells and is conserved from bacteria to humans. The universal cellular lipid storage organelle is the so-called lipid storage droplet (LD). Although ubiquitous, LDs share a simple structure composed of a hydrophobic core that harbors the storage lipids, which is shielded by a droplet-specific phospholipid monolayer to which proteins are attached. The current model of LD biogenesis involves an incorporation of the lipid core into the membrane leaflets of the endoplasmic reticulum (ER) followed by a subsequent budding-like maturation of a LD, which ultimately pinches off. Once released, LD volume can increase by localized lipogenesis or fusion of existing droplet. Storage lipids are re-mobilized enzymatically by lipase activity. Lipase regulation in the adipocyte is heavily studied and involves multiple components including catecholamine signaling, the LD-associated proteins Perilipin and comparative gene identification (CGI-58) and at least two lipases named hormone sensitive lipase (HSL) and adipocyte triglyceride lipase (ATGL). LD regulation outside of the adipocyte is poorly understood and only few components are known. However, there is an urgent need to learn more about ectopic fat depots as mislocalized storage of lipids, for example in the liver or muscle, is an eminent health problem associated with insulin resistance or the metabolic syndrome. We developed a laser-scanning cytometer assay to enable 1,536-well screening and combined the results of the small molecules screen with an RNAi database based on lipid storage.
Triacsin C (Sigma-Aldrich T-4540), an inhibitor of long-chain fatty acyl CoA synthetase that blocks synthesis of triglycerides, was used as a positive control for lipid under-storage. A total of 23 nL of compound solution of different concentrations were transferred to the assay plates using a Kalypsys pin tool equipped with a 1,536-pin array containing 10-nL slotted pins (FP1S10, 0.457-mm diameter, 50.8 mm long; V&P Scientific). One microliter of oleic acid (400 uM) was added, and the plate was lidded with stainless steel rubber gasket lined lids containing pinholes. […] Fluorescence was detected by excitation of the fluorophores with a 488-nm laser on an Acumen Explorer (TTP Lab Tech). The total intensity in channel 2 (500-530 nm) reflected lipid droplet accumulation. Cells were detected using channel 3 (575-640 nm) with 5-um width and 100-um depth filters. The ratio of the number of objects in PMT channel 2 over the number of objects in PMT channel 3 was also calculated. Percent activity was computed relative to an internal control (100% inhibited lipid droplet deposition due to the presence of 20 uM Triacsin C), which was added to 32 wells/plate.

[1] = measured here: lipid fluorescence (Fed channel) AC50, cells fed with added oleic acid
[2] = measured here: cell number channel AC50, cells fed with added oleic acid

With `C=CCn1c(SCC(=O)N2CCCCC2)nnc1-c1ccncc1` the cell number change was 23% and the AC50 [1] was 0.00411 µM [rising, full curve, poor fit].
In the case of `CCCCn1c(SCC2CCCCO2)nc2cc(S(N)(=O)=O)ccc21` (stereo unspecified), the cell number change is reported as -24.9%.
For `Cc1ccc(N2C(=NC(=O)c3ccccc3)SC3CS(=O)(=O)CC32)cc1` (stereo unspecified), the cell number change was 2.93% and the AC50 [1] was 4.11 µM [falling, single point].
For `CC(Oc1ccc(-c2ccccc2)cc1)C(=O)N1CCOCC1` (stereo unspecified), the AC50 [1] was 0.0291 µM [falling, full curve, poor fit].
In the case of `O=C(c1ccc2c(=O)n(Cc3ccc4c(c3)OCO4)c(=O)[nH]c2c1)N1CCN(c2ccccc2)CC1`, the cell number change is reported as -11.2% and the AC50 [1] is reported as 2.59 µM [falling, full curve, poor fit].
In the case of `CC(=O)c1cccc(NC(=O)c2cc(-c3ccco3)on2)c1`, the cell number change is reported as 13.8% and the AC50 [1] is reported as 0.82 µM [rising, full curve].
With `Cc1ccc(OCCCC(=O)Nc2ccc3c(c2)OCO3)cc1` the cell number change was -6.9%.
With `O=C(O)c1c[nH]c2ccc(S(=O)(=O)N3CCOCC3)cc12` the cell number change was -36.8% and the AC50 [2] was 1.3 µM [falling, full curve].
In the case of `COc1ccccc1C(=O)NNC(=O)C(=O)Nc1cccc(Cl)c1C`, the cell number change is reported as 56.6%, the AC50 [2] is reported as 32.6 µM [rising, single point] and the AC50 [1] is reported as 35.5 µM [falling, single point].
With `CC1Cc2ccccc2N1C(=O)CCS(=O)(=O)c1ccc2c(c1)NC(=O)CS2` (stereo unspecified) the cell number change was -27.4%.
Compound `C=CCC1(CC=C)CCCN1C(=O)Cn1nnnc1CN(C)C(C)C` has a cell number change of 14.8%.
For `CCOC(=O)c1sc(=NC(=O)CCS(=O)(=O)c2ccccc2)n(C)c1C`, the cell number change was 33.6% and the AC50 [1] was 20.6 µM [rising, partial curve].
In the case of `Cc1ccccc1OCCSc1nnc(C)n1-c1ccccc1`, the AC50 [2] is reported as 0.92 µM [rising, full curve] and the AC50 [1] is reported as 0.517 µM [rising, partial curve, poor fit].
In the case of `Cc1cc(C)c(S(=O)(=O)N(CC(=O)O)CC(=O)O)c(C)c1`, the cell number change is reported as 7.32% and the AC50 [1] is reported as 29.1 µM [falling, single point].
With `Cc1ccc(Cl)cc1N1CCN(C(=O)C2CCCN(S(=O)(=O)c3cnc[nH]3)C2)CC1` (stereo unspecified) the cell number change was -5.83% and the AC50 [1] was 29.1 µM [falling, single point].
With `COc1ccc(-c2nnc(NC(=O)c3ccc([N+](=O)[O-])o3)o2)c(OC)c1` the cell number change was 3.45% and the AC50 [1] was 2.31 µM [falling, partial curve, poor fit].
In the case of `CCN(CC)S(=O)(=O)c1cccc(-c2nnc(SCc3nc4ccccc4s3)o2)c1`, the AC50 [2] is reported as 2.91 µM [rising, single point] and the AC50 [1] is reported as 13 µM [rising, partial curve].
With `Cn1c(SCC(=O)Nc2ccc3c(c2)OCCO3)nnc1C(F)(F)F` the cell number change was 3.26% and the AC50 [1] was 0.231 µM [rising, partial curve, poor fit].
For `O=C(/C=C/c1ccc([N+](=O)[O-])cc1)Nc1ncc([N+](=O)[O-])s1`, the cell number change was 1.5% and the AC50 [2] was 0.0291 µM [rising, full curve, poor fit].
In the case of `Cc1ccsc1CNn1cnnc1SCc1ccccc1F`, the cell number change is reported as 47.9% and the AC50 [2] is reported as 29.1 µM [rising, partial curve, poor fit].
In the case of `COC(=O)[C@H](CCSC)NC(=O)c1cc2c(cn1)[nH]c1ccccc12`, the cell number change is reported as 7.8% and the AC50 [2] is reported as 2.06 µM [rising, single point].
Compound `O=C(NC1CC2CCCC(C1)N2C(=O)Nc1ccc(F)cc1)c1ccccc1` (stereo unspecified) has a cell number change of 8.75%.
In the case of `O=C(CCS(=O)(=O)c1cccc2nonc12)NCCc1ccccc1Cl`, the cell number change is reported as -3.85% and the AC50 [1] is reported as 2.06 µM [rising, partial curve].
In the case of `CN1CCCN(C(=O)c2cc(=O)[nH]c3ccccc23)c2nc3ccccc3nc21`, the AC50 [1] is reported as 6.51 µM [rising, partial curve].
For `COc1ccc(NC(=O)Nc2cccc([N+](=O)[O-])c2)cc1Cl`, the cell number change was -55% and the AC50 [2] was 18.4 µM [falling, single point].
For `O=C1C2C3C=CC(C3)C2C(=O)N1CCc1ccccc1` (stereo unspecified), the cell number change was 13.2% and the AC50 [1] was 0.0651 µM [rising, full curve, poor fit].
In the case of `CC(=O)N1CCC(=NNC(=O)c2cccs2)CC1`, the AC50 [1] is reported as 0.116 µM [falling, full curve, poor fit].
With `O=C(NC1CCCCC1)C1(c2ccccc2)CC1(Cl)Cl` (stereo unspecified) the cell number change was 11.8% and the AC50 [2] was 6.51 µM [rising, single point].
For `COc1cccc(CN(C(=O)Cc2c[nH]c3ccccc23)C(C(=O)NC2CCCCC2)c2cccs2)c1` (stereo unspecified), the AC50 [2] was 6.51 µM [rising, single point].
Compound `COc1cc(NC(=O)Cc2ccc([N+](=O)[O-])cc2)c(C(=O)O)cc1OC` has a cell number change of -5.66%.
In the case of `O=C(c1cc(-c2ccncc2)nc2ccccc12)N1CCN(c2ccccn2)CC1`, the cell number change is reported as -18.7%.
For `OCc1ccccc1CNCc1ccccc1`, the cell number change was -8.4%, the AC50 [2] was 1.16 µM [rising, partial curve, poor fit] and the AC50 [1] was 0.092 µM [falling, full curve, poor fit].
In the case of `COc1ccc(-c2cn(-c3ccc(C)c(Cl)c3)c(=S)[nH]2)cc1OC`, the cell number change is reported as 34% and the AC50 [2] is reported as 3.26 µM [rising, full curve, poor fit].
`CCOc1ccccc1Nc1nc(-c2sc(NC(=O)c3cccc(Cl)c3)nc2C)cs1` showed a cell number change of 138%.
For `FC(F)(F)c1nc(NCc2ccccc2)c2nnn(Cc3ccccc3)c2n1`, the cell number change was -53.4% and the AC50 [2] was 10.3 µM [falling, partial curve, poor fit].
In the case of `COc1cc(-c2nc3ccc4ccccc4c3c3c2CCC3)cc(OC)c1O`, the cell number change is reported as -25.2% and the AC50 [1] is reported as 18.4 µM [falling, single point].
In the case of `CN(C)c1ccc(C2N3CC4(C)CN2CC(C)(C3)C4O)cc1` (stereo unspecified), the cell number change is reported as -12.6% and the AC50 [1] is reported as 29.1 µM [rising, single point].
With `N#Cc1ccc(-c2ccco2)nc1SCC(=O)c1ccc(Cl)cc1` the cell number change was -12.6% and the AC50 [1] was 6.51 µM [falling, partial curve, poor fit].
With `Nc1ccc(S(=O)(=O)NNC(=O)C(=O)NNc2ccccn2)cc1` the cell number change was -149%, the AC50 [2] was 25.9 µM [falling, partial curve] and the AC50 [1] was 23.1 µM [falling, partial curve].
In the case of `COC(=O)c1cc(S(=O)(=O)NCC2CCN(Cc3cc(C)ccc3C)CC2)cn1C`, the cell number change is reported as -18.6%.
For `CCOC(=O)Nc1ccc2nc(N3CCCCCC3)sc2c1`, the cell number change was 16.9%, the AC50 [2] was 0.146 µM [rising, full curve, poor fit] and the AC50 [1] was 0.651 µM [rising, partial curve].
For `O=C(c1ccco1)N1CCN(c2cc(N3CCOCC3)c(F)cc2[N+](=O)[O-])CC1`, the cell number change was -46.3% and the AC50 [2] was 8.2 µM [falling, partial curve].
With `CCc1nc(SCC(=O)Nc2ccc(C(=O)O)cc2)n[nH]1` the AC50 [1] was 32.6 µM [falling, single point].
With `COc1ccc(-c2nc3ccccc3o2)cc1NC(=O)c1ccc(Br)o1` the cell number change was -19.2%.
In the case of `Cc1ccc(OCC(=O)O)c(-n2nc3ccccc3n2)c1`, the cell number change is reported as 0.884% and the AC50 [1] is reported as 1.3 µM [falling, full curve].
For `COc1ccc(CCNC(=O)Cc2ccc(NS(=O)(=O)c3ccc(F)cc3)cc2)cc1OC`, the cell number change was 0.516% and the AC50 [1] was 5.17 µM [rising, partial curve].
For `O=C(CSc1nc2ccccc2c(=O)n1-c1ccc(F)cc1)NCc1ccco1`, the AC50 [2] was 0.82 µM [rising, full curve] and the AC50 [1] was 0.651 µM [rising, single point].
In the case of `O=C(O)c1ccccc1-c1nc2ccccc2c(=O)[nH]1`, the cell number change is reported as -36.6%, the AC50 [2] is reported as 2.31 µM [falling, full curve, poor fit] and the AC50 [1] is reported as 29.1 µM [falling, single point].
With `Cc1nn(C)cc1/C=N/O` the cell number change was -33.3%, the AC50 [2] was 4.11 µM [falling, full curve, poor fit] and the AC50 [1] was 0.116 µM [falling, full curve].
With `Cc1cccc(C)c1NC(=O)CN(C)C(=O)c1cccc(NS(=O)(=O)c2ccccc2)c1` the cell number change was -10.9% and the AC50 [1] was 16.4 µM [rising, single point].
Work on `CCCNC(=O)c1ccccc1NC(=O)c1ccc2c(c1)NC(=O)C(C)S2` (stereo unspecified) yielded a cell number change of -15.9%.
With `CSc1ccccc1OCc1cc(C(=O)N[C@H]2CCCCNC2=O)no1` the cell number change was -20.5% and the AC50 [1] was 29.1 µM [falling, single point].
With `NC(=O)[C@@H]1CC2(CC(c3cccc(NC(=O)[C@@H]4CCC(=O)N4)c3)=NO2)CN1C(=O)Cc1ccc([N+](=O)[O-])cc1` (stereo partly specified) the cell number change was 25% and the AC50 [1] was 29.1 µM [rising, single point].
In the case of `Cc1cc2nc(CS(=O)(=O)c3ccccc3)cc(=O)n2[nH]1`, the cell number change is reported as -42.9% and the AC50 [2] is reported as 6.51 µM [falling, full curve, poor fit].
In the case of `O=[N+]([O-])c1ccc2nc(Cl)nc(-c3ccccc3)c2c1`, the cell number change is reported as 15.3%.
With `CC(=O)c1ccc(OCC(=O)OCC(=O)NCc2ccco2)cc1` the cell number change was 18.2% and the AC50 [1] was 14.6 µM [rising, partial curve, poor fit].
For `Cc1ccc(/C=N/N2CCN(Cc3ccccc3)CC2)cc1`, the cell number change was -8.7% and the AC50 [2] was 0.517 µM [falling, single point].
With `Cc1ccc(/C=C/C(=O)c2ccc(C)cc2)cc1` the cell number change was -23.8% and the AC50 [1] was 14.6 µM [falling, partial curve, poor fit].
Compound `O=C(c1ccc(Cl)c(S(=O)(=O)N2CCCC2)c1)N1CCN(c2ccccc2)CC1` has a cell number change of 14.7%.
For `CN(C)c1ccc(/C=C2/SC(=O)N(CCN=C3NS(=O)(=O)c4ccccc43)C2=O)cc1`, the cell number change was -17.9% and the AC50 [1] was 0.0116 µM [falling, full curve, poor fit].
In the case of `Cc1ccccc1OCCC(=O)N1CCN(S(=O)(=O)c2ccccc2F)CC1`, the AC50 [1] is reported as 20.6 µM [rising, single point].
With `COc1cccc(CN(C)C(=O)c2cc(S(=O)(=O)NCc3ccccc3)ccc2C)c1OC` the cell number change was 130% and the AC50 [2] was 23.1 µM [rising, partial curve].
